Publication doi:10.1101/2025.07.16.664180
No constants are given. Whether binding was seen depends on the method and setting. Some results given as binding are weak or reduced against the parent protein; the word gives no strength. For some assays here: Sequences can lack the tags named with a protein.

What was measured:
[1] = target: methionine sulfoxide reductase A (MSRA), wildtype, Myc-tagged, expressed in white adipocyte cultures (UniProt Q9D6Y7); assay: native gel or EMSA
[2] = target: recombinant wildtype MSRA (not stated (human or mouse cDNA cloned)) (UniProt Q9D6Y7); assay: SEC

binding [1]	binding [2]	Binder
binds	–	methionine sulfoxide reductase A (MSRA), wildtype, Myc-tagged, expressed in white adipocyte cultures (enzyme, UniProt Q9D6Y7 21-233) MGDSASKVISAEEALPGRTEPIPVTAKHHVSGNRTVEPFPEGTQMAVFGMGCFWGAERKFWVLKGVYSTQVGFAGGHTRNPTYKEVCSEKTGHAEVVRVVYRPEHISFEELLKVFWENHDPTQGMRQGNDFGTQYRSAVYPTSAVQMEAALRSKEEYQKVLSKHNFGPITTDIREGQVFYYAEDYHQQYLSKNPDGYCGLGGTGVSCPMAIKK
–	binds	recombinant wildtype MSRA (enzyme, UniProt Q9D6Y7 21-233) MGDSASKVISAEEALPGRTEPIPVTAKHHVSGNRTVEPFPEGTQMAVFGMGCFWGAERKFWVLKGVYSTQVGFAGGHTRNPTYKEVCSEKTGHAEVVRVVYRPEHISFEELLKVFWENHDPTQGMRQGNDFGTQYRSAVYPTSAVQMEAALRSKEEYQKVLSKHNFGPITTDIREGQVFYYAEDYHQQYLSKNPDGYCGLGGTGVSCPMAIKK
